# Data taken from the supplement of paper PMC4807443.
# Counter-ions that a name gives are not always drawn. Some of the results follow. The numbers are fractions of the control, whatever unit the source prints. Most values lie at the level of the controls, where differences are scatter.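 A lentiviral reporter stably expressed in MIN6 mouse insulinoma beta cells uses Pdx1 and Ins1 promoters to drive separate nucleus-targeted fluorescent proteins; automated imaging with Hoechst nuclear stain counted cells. Possible hits were drugs shifting Ins1 promoter signal more than two median absolute deviations from DMSO controls, with Pdx1 activity roughly normal.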
# System: MIN6
# Assay: % Pdx1+ Ins1-low (RFP-only, immature) cells relative to DMSO control (fold of DMSO control); higher = more immature Pdx1+/Ins1-low cells
# Details: 8.5 µM; 48 h; glucose 5 mM
row,Structure (SMILES),% Pdx1+ Ins1-low
1,CC[C@H]1CN2CC[C@H]1C[C@H]2[C@H](O)c1ccnc2ccc(OC)cc12 [Hydroquinine hydrobromide hydrate],0.791
2,O=c1[nH]c2ccccc2n1C1CCN(CCCC(c2ccc(F)cc2)c2ccc(F)cc2)CC1 [Pimozide],1.67
3,Cc1cc2c(C(C)C)c(O)c(O)c(C=O)c2c(O)c1-c1c(C)cc2c(C(C)C)c(O)c(O)c(C=O)c2c1O [Gossypol],0.926
4,C#CCN(C)[C@H](C)Cc1ccccc1 [Selegiline hydrochloride],1.02
5,C[C@@H]1O[C@@H](O[C@@H]2C=C3CC[C@@H]4[C@H](CC[C@]5(C)[C@@H](c6ccc(=O)oc6)CC[C@]45O)[C@@]3(C)CC2)[C@H](O)[C@H](O)[C@H]1O [Proscillaridin A],1.23
6,C[C@]12CC[C@@H](O)C[C@H]1CC[C@@H]1[C@@H]2CC[C@]2(C)C(=O)CC[C@@H]12 [3-alpha-Hydroxy-5-beta-androstan-17-one],1.08
7,CNCC(O)c1ccc(O)c(OC)c1 (stereo not drawn) [Metanephrine hydrochloride DL],1.15
8,Clc1ccc(C(OCCN2CCCCC2)c2ccccc2)cc1 (configuration not stated) [Cloperastine hydrochloride],1.26
9,C[C@]12CC[C@H](O)C[C@H]1CC[C@@H]1[C@@H]2C[C@@H](O)[C@]2(C)[C@@H](C3=CC(=O)OC3)CC[C@]12O [Digoxigenin],1.42
10,CC(Cc1ccccc1)NCCC(c1ccccc1)c1ccccc1 (configuration not stated) [Prenylamine lactate],1.24
11,CC(=O)NC1CCSC1=O (racemic) [N-Acetyl-DL-homocysteine Thiolactone],1.03
12,COc1cc2c(c(OC)c1OC)-c1ccc(O)c(=O)cc1[C@@H](N)CC2 [Trimethylcolchicinic acid],0.962
13,Cc1cccc(C)c1NC1=NCCCS1 [Xylazine],1.05
14,CO[C@H](C)[C@](O)(C(=O)OCC1=CCN2CC[C@H](O)[C@@H]12)C(C)C [Heliotrine],1.14
15,O=P1(NCCCl)OCCCN1CCCl (configuration not stated) [Ifosfamide],0.784
16,C=C(C)[C@@H]1[C@H]2OC(=O)[C@@H]1[C@]1(O)C[C@H]3O[C@]34C(=O)O[C@H]2[C@]14C [Picrotoxinin],1.12
17,CC(C)c1c(CN(C)C(C)Cc2ccccc2)n(C)n(-c2ccccc2)c1=O (configuration not stated) [Famprofazone],0.684
18,COc1cc2c(cc1OC)C(C)NCC2 (configuration not stated),1.21
19,NC(=O)CN1CCCC1=O [Piracetam],0.711
20,C=C[C@]12CN(C)[C@@H]3[C@H]4CO[C@H](C[C@H]41)[C@]1(C(=O)Nc4ccccc41)[C@@H]32 [Gelsemine],1.05
21,Cc1c2ccncc2c(C)c2c1[nH]c1ccccc12 [Ellipticine],1.08
22,CC(=O)OCC(=O)[C@H]1CC[C@H]2[C@@H]3CC[C@H]4C[C@H](O)CC[C@]4(C)[C@H]3C(=O)C[C@]12C [Alfadolone acetate],0.996
23,C[C@H]1C(=O)O[C@@H]2CCN3CC=C(COC(=O)[C@](C)(O)[C@]1(C)O)[C@H]23 [Monocrotaline],1.06

# A few values from above.
# C[C@H]1C(=O)O[C@@H]2CCN3CC=C(COC(=O)[C@](C)(O)[C@]1(C)O)[C@H]23 [Monocrotaline] | % Pdx1+ Ins1-low: 1.06
# Cc1cccc(C)c1NC1=NCCCS1 [Xylazine] | % Pdx1+ Ins1-low: 1.05

# Further records follow:

row,Structure (SMILES),% Pdx1+ Ins1-low
1,CO[C@]12C[C@@H](COC(=O)c3cncc(Br)c3)CN(C)[C@@H]1Cc1cn(C)c3cccc2c13 [Nicergoline],1.11
2,"CC(=O)OCC1=C(C(=O)O)N2C(=O)[C@@H](N)[C@H]2SC1 [Cephalosporanic acid, 7-amino]",1.43
3,COC1=C[C@@H]2C3=C([C@@H]2C1=O)[C@@H](NC(C)=O)CCc1cc(OC)c(OC)c(OC)c13 [Lumicolchicine gamma],0.522
4,C[N+]12CCC(CC1)C(OC(=O)C(O)(c1ccccc1)c1ccccc1)C2 (configuration not stated) [Clidinium bromide],0.914
5,CCN1C[C@]2(COC)CC[C@H](O)[C@@]34C5C[C@@H]6[C@@H](OC)C[C@](O)(C(CC23)C14)C5[C@H]6OC(C)=O (some centres not stated) [Condelphine],0.946
6,CC[C@H]1CN2CCc3cc(OC)c(OC)cc3[C@@H]2C[C@@H]1C[C@H]1NCCc2cc(OC)c(OC)cc21 [Emetine dihydrochloride],1.44
7,COc1cc([C@@H]2c3cc4c(cc3[C@H](O)[C@H]3COC(=O)[C@H]23)OCO4)cc(OC)c1OC [Podophyllotoxin],1.02
8,CCNC1(c2cccs2)CCCCC1=O (configuration not stated) [Tiletamine hydrochloride],0.707
9,CCC1(c2cccc(O)c2)CCCCN(C)C1 (configuration not stated) [Meptazinol hydrochloride],1.31
10,C[C@@H]1CC[C@H]2[C@@H](C)C(=O)O[C@@H]3O[C@@]4(C)CC[C@@H]1[C@]32OO4 [Artemisinin],1.08
11,CC[C@H]1[C@@H]2C[C@H]3[C@@H]4N(C)c5ccccc5[C@]45C[C@@H]([C@@H]2[C@H]5O)N3[C@@H]1O [Ajmaline],0.905
12,CS(=N)(=O)CC[C@H](N)C(=O)O (some centres not stated) [Methionine sulfoximine (L)],1.17
13,COc1ccc(C[C@H]2NC[C@H](O)[C@H]2OC(C)=O)cc1 [Anisomycin],1.23
14,CN1[C@@H](C[C@@H](O)c2ccccc2)CCC[C@H]1C[C@H](O)c1ccccc1 [Lobelanidine hydrochloride],0.952
15,COc1ccc2c(c1)[nH]c1c(C)nccc12 [Harmine hydrochloride],1.31
16,NCCc1c[nH]c2ccc(O)cc12 [Serotonin hydrochloride],0.637
17,COc1ccc(Cc2nccc3cc(OC)c(OC)cc23)cc1OC [Papaverine hydrochloride],0.861
18,CCC1(CC)C(=O)C=CNC1=O [Pyrithyldione],1.31
19,C[C@@H]1NCCc2cc(O)c(O)cc21 [Salsolinol hydrobromide],1.34
20,CC(C)(C)NCC(O)c1cc(Cl)c(N)c(Cl)c1 (configuration not stated) [Clenbuterol hydrochloride],1.13
21,Fc1ccc(C(OCCN2CCN(CCCc3ccccc3)CC2)c2ccc(F)cc2)cc1,0.735
22,COC(=O)C1=CCCN(C)C1 [Arecoline hydrobromide],0.785
23,CN1C[C@H](CO)C=C2c3cccc4[nH]cc(c34)C[C@H]21 [Lysergol],0.941

row,Structure (SMILES),% Pdx1+ Ins1-low
1,CC(=O)O[C@H]1C[C@H](O[C@H]2[C@@H](O)C[C@H](O[C@H]3[C@@H](O)C[C@H](O[C@H]4CC[C@@]5(C)[C@H](CC[C@@H]6[C@@H]5C[C@@H](O)[C@]5(C)[C@@H](C7=CC(=O)OC7)CC[C@]65O)C4)O[C@@H]3C)O[C@@H]2C)O[C@H](C)[C@H]1O[C@@H]1O[C@H](CO)[C@@H](O)[C@H](O)[C@H]1O [Lanatoside C],1
2,COc1ccc(CCN2CCC(Nc3nc4ccccc4n3Cc3ccc(F)cc3)CC2)cc1 [Astemizole],0.724
3,C/C=C1\C[C@@H](C)[C@](O)(CO)C(=O)OCC2=CCN3CC[C@@H](OC1=O)[C@@H]23 [Retrorsine],1.1
4,CC1=C2[C@H]3OC(=O)[C@@H](C)[C@@H]3CC[C@@]2(C)C=CC1=O [alpha-Santonin],0.594
5,C[C@]12N[C@H](Cc3ccccc31)c1ccccc12 [Dizocilpine maleate],0.845
6,C[N+]1([O-])[C@@H]2C[C@@H](OC(=O)[C@H](CO)c3ccccc3)C[C@H]1[C@@H]1O[C@@H]12 (some centres not stated) [Scopolamin-N-oxide hydrobromide],1.33
7,O[C@@H]1CCCC[C@H]1N1CCC(c2ccccc2)CC1 [L(-)-vesamicol hydrochloride],1.13
8,c1cncc(C2=NCCC2)c1 [Myosmine],1.01
9,Cc1nccc2c1[nH]c1ccccc12 [Harmane hydrochloride],1.14
10,CCN1C[C@]2(COC)[C@H](O)C[C@H](OC)[C@@]34[C@@H]5C[C@@]6(O)[C@H](OC(=O)c7ccccc7)[C@@H]5[C@@](OC(C)=O)([C@@H]([C@H](OC)[C@H]23)[C@@H]14)[C@@H](O)[C@@H]6OC [Aconitine],0.703
11,O=[N+]([O-])c1cc([As](=O)(O)O)ccc1O [Roxarsone],0.822
12,"CCC1(c2ccc(N)cc2)CCC(=O)NC1=O (configuration not stated) [Glutethimide, para-amino]",0.557
13,CC[C@@]1([C@@H]2O[C@@H]([C@H]3O[C@@](O)(CO)[C@H](C)C[C@@H]3C)C[C@@H]2C)CC[C@H]([C@]2(C)CC[C@]3(C[C@H](O)[C@@H](C)[C@@H]([C@@H](C)[C@@H](OC)[C@H](C)C(=O)O)O3)O2)O1 [Monensin sodium salt],0.997
14,CN(C)C(=O)Oc1cc(OC(=O)N(C)C)cc(C(O)CNC(C)(C)C)c1 (configuration not stated) [Bambuterol hydrochloride],1.43
15,CCn1cc(C(=O)O)c(=O)c2cc3c(cc21)OCO3 [Oxolinic acid],0.911
16,C[C@]12CC[C@H](O)C[C@@H]1CC[C@@H]1[C@@H]2CC[C@]2(C)C(=O)CC[C@@H]12 [Epiandrosterone],0.844
17,"NCC(O)c1ccc(O)cc1 (racemic) [(+,-)-Octopamine hydrochloride]",1.03
18,C[C@@H]1O[C@@H](O[C@H]2C[C@@H](O)[C@]3(CO)[C@H]4[C@H](O)C[C@]5(C)[C@@H](C6=CC(=O)OC6)CC[C@]5(O)[C@@H]4CC[C@]3(O)C2)[C@H](O)[C@H](O)[C@H]1O [Strophantine octahydrate],1.03
19,COc1ccc2c3c([nH]c2c1)C(C)=NCC3 [Harmaline hydrochloride dihydrate],1.25
20,CN1[C@@H]2CC[C@H]1C[C@@H](OC1c3ccccc3CCc3ccccc31)C2 [Deptropine citrate],1.17
21,O=C1C=C2C=C[C@@H]3C[C@@]2(O1)[C@H]1CCCCN31 [Securinine],0.577

# Compounds listed so far that contain a carbonyl joined to an NH by a bond outside any ring:
row,Structure (SMILES),% Pdx1+ Ins1-low
11,CC(=O)NC1CCSC1=O (racemic) [N-Acetyl-DL-homocysteine Thiolactone],1.03
19,NC(=O)CN1CCCC1=O [Piracetam],0.711
3,COC1=C[C@@H]2C3=C([C@@H]2C1=O)[C@@H](NC(C)=O)CCc1cc(OC)c(OC)c(OC)c13 [Lumicolchicine gamma],0.522
